Test results reported in patent US20250127740A1, “COMPOSITION CONTAINING 3-HYDROXYANTHRANILIC ACID AND COMPOUNDS THAT ALTER IRON HOMEOSTASIS AND METHOD OF ITS USE” (priority 2021, published 2025).
For at least one compound, name, drawing or mass did not settle the structure.

How the values were obtained:
Assay type in all cases: cell-based
[1] = tested on: E. coli; test: Colony formation (CFUs) of E. coli on culture plate; conditions: 1 mM 3HAA or 15 uM DFO alone
[2] = tested on: P. aeruginosa; test: Colony formation (CFUs) of P. aeruginosa on culture plate; conditions: 1 mM 3HAA and 15 uM DFO alone or in combination
Method: To test the effects of 3HAA and DFO on colony formation of P. aeruginosa, 1 mM 3HAA and 15 uM DFO alone or in combination were added to culture plate containing P. aeruginosa.

[3] = tested on: P. aeruginosa; test: Inhibition of P. aeruginosa growth in liquid media (OD 600 nm) and CFUs on solid media; conditions: different dosages, single compound
Method: 3HAA was tested for its ability to negatively impact bacterial growth. 3HAA was tested at different dosages for inhibition of E. coli and P. aeruginosa growth in liquid media (measured by optical density at 600 nm) and colony forming units (CFUs) on solid media.
Deferoxamine (DFO) was also tested for its ability to impact bacterial growth. Deferoxamine was tested at different dosages for inhibition of E. coli and P. aeruginosa growth in liquid media (measured by optical density at 600 nm) and CFUs on solid media.

## CC(=O)N(O)CCCCCNC(=O)CCC(=O)N(O)CCCCCNC(=O)CCC(=O)N(O)CCCCCN [DFO, deferoxamine, reference compound]
[1]
  impact on colony formation (E. coli): Neither 1 mM 3HAA nor 15 uM DFO alone showed significant impact
[2]
  impact on colony formation (P. aeruginosa): neither affected colony formation alone
[3]
  impact on growth of P. aeruginosa: very little impact
